The list shows a part of the results.

Common to all, as to assay: glycan array binding signal (z-score within array); higher = stronger binding
What all share (conditions): glycan notation: IUPAC condensed, linker removed

Assay [1] concerns the target Gal(b1-4)GlcNAc(b1-3)Gal(b1-3)GlcNAc. Put shortly: (§1)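 Negative Z-scores can be read as non-binding. The Z-score is calculated within each array and then averaged across arrays of one protein sequence at different concentrations or buffers and across linkers. Arrays, 3228 in all, were curated from the Consortium for Functional Glycomics database and kept only where the protein sequence was available.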

Assay [2] concerns the target Gal(b1-4)GlcNAc(b1-3)Gal(b1-4)Glc. Put shortly:
as §1

In assay [3] the target is Gal(b1-4)GlcNAc(b1-3)Gal(b1-4)GlcNAc. An outline of the steps:
as §1

Assay [4] concerns the target Gal(b1-4)GlcNAc(b1-3)Gal(b1-4)GlcNAc(b1-2)Man(a1-3)[Gal(b1-4)GlcNAc(b1-3)Gal(b1-4)GlcNAc(b1-2)Man(a1-6)]Man(b1-4)GlcNAc(b1-4)GlcNAc. Put shortly: as §1
In assay [5] the target is Gal(b1-4)GlcNAc(b1-3)Gal(b1-4)GlcNAc(b1-2)Man(a1-3)[Gal(b1-4)GlcNAc(b1-3)Gal(b1-4)GlcNAc(b1-2)Man(a1-6)]Man(b1-4)GlcNAc(b1-4)[Fuc(a1-6)]GlcNAc. Put shortly:
as §1

Assay [6] deals with Gal(b1-4)GlcNAc(b1-3)Gal(b1-4)GlcNAc(b1-2)[Gal(b1-4)GlcNAc(b1-3)Gal(b1-4)GlcNAc(b1-6)]Man(a1-6)[Gal(b1-4)GlcNAc(b1-3)Gal(b1-4)GlcNAc(b1-2)Man(a1-3)]Man(b1-4)GlcNAc(b1-4)GlcNAc. An outline of the steps: as §1
The target in assay [7] is Gal(b1-4)GlcNAc(b1-3)Gal(b1-4)GlcNAc(b1-2)[Gal(b1-4)GlcNAc(b1-3)Gal(b1-4)GlcNAc(b1-6)]Man(a1-6)[Gal(b1-4)GlcNAc(b1-3)Gal(b1-4)GlcNAc(b1-2)Man(a1-3)]Man(b1-4)GlcNAc(b1-4)[Fuc(a1-6)]GlcNAc. Put shortly: as §1
Assay [8] has as its target Gal(b1-4)GlcNAc(b1-3)Gal(b1-4)GlcNAc(b1-3)Gal(b1-4)GlcNAc. An outline of the steps: as §1
Assay [9] has as its target Gal(b1-4)GlcNAc(b1-3)Gal(b1-4)GlcNAc(b1-3)Gal(b1-4)GlcNAc(b1-2)Man(a1-3)[Gal(b1-4)GlcNAc(b1-3)Gal(b1-4)GlcNAc(b1-3)Gal(b1-4)GlcNAc(b1-2)Man(a1-6)]Man(b1-4)GlcNAc(b1-4)GlcNAc. Put shortly:
as §1

Assay [10] deals with Gal(b1-4)GlcNAc(b1-3)Gal(b1-4)GlcNAc(b1-3)Gal(b1-4)GlcNAc(b1-2)Man(a1-3)[Gal(b1-4)GlcNAc(b1-3)Gal(b1-4)GlcNAc(b1-3)Gal(b1-4)GlcNAc(b1-2)Man(a1-6)]Man(b1-4)GlcNAc(b1-4)[Fuc(a1-6)]GlcNAc. Put shortly: as §1
Assay [11] addresses Gal(b1-4)GlcNAc(b1-3)Gal(b1-4)GlcNAc(b1-3)Gal(b1-4)GlcNAc(b1-2)[Gal(b1-4)GlcNAc(b1-3)Gal(b1-4)GlcNAc(b1-3)Gal(b1-4)GlcNAc(b1-6)]Man(a1-6)[Gal(b1-4)GlcNAc(b1-3)Gal(b1-4)GlcNAc(b1-3)Gal(b1-4)GlcNAc(b1-2)Man(a1-3)]Man(b1-4)GlcNAc(b1-4)[Fuc(a1-6)]GlcNAc. Put shortly: as §1
For assay [12], the target named is Gal(b1-4)GlcNAc(b1-3)Gal(b1-4)GlcNAc(b1-3)Gal(b1-4)GlcNAc(b1-3)Gal(b1-4)GlcNAc(b1-2)Man(a1-3)[Gal(b1-4)GlcNAc(b1-3)Gal(b1-4)GlcNAc(b1-3)Gal(b1-4)GlcNAc(b1-3)Gal(b1-4)GlcNAc(b1-2)Man(a1-6)]Man(b1-4)GlcNAc(b1-4)GlcNAc. Put shortly: as §1
Assay [13] addresses Gal(b1-4)GlcNAc(b1-3)Gal(b1-4)GlcNAc(b1-3)Gal(b1-4)GlcNAc(b1-3)Gal(b1-4)GlcNAc(b1-2)Man(a1-3)[Gal(b1-4)GlcNAc(b1-3)Gal(b1-4)GlcNAc(b1-3)Gal(b1-4)GlcNAc(b1-3)Gal(b1-4)GlcNAc(b1-2)Man(a1-6)]Man(b1-4)GlcNAc(b1-4)[Fuc(a1-6)]GlcNAc. An outline of the steps: as §1
Assay [14] addresses Gal(b1-4)GlcNAc(b1-3)Gal(b1-4)GlcNAc(b1-3)Gal(b1-4)GlcNAc(b1-3)Gal(b1-4)GlcNAc(b1-2)[Gal(b1-4)GlcNAc(b1-3)Gal(b1-4)GlcNAc(b1-3)Gal(b1-4)GlcNAc(b1-3)Gal(b1-4)GlcNAc(b1-6)]Man(a1-6)[Gal(b1-4)GlcNAc(b1-3)Gal(b1-4)GlcNAc(b1-3)Gal(b1-4)GlcNAc(b1-3)Gal(b1-4)GlcNAc(b1-2)Man(a1-3)]Man(b1-4)GlcNAc(b1-4)[Fuc(a1-6)]GlcNAc. Put shortly: as §1
Assay [15] deals with Gal(b1-4)GlcNAc(b1-3)Gal(b1-4)GlcNAc(b1-3)Gal(b1-4)GlcNAc(b1-3)Gal(b1-4)GlcNAc(b1-3)Gal(b1-4)GlcNAc(b1-2)Man(a1-3)[Gal(b1-4)GlcNAc(b1-3)Gal(b1-4)GlcNAc(b1-3)Gal(b1-4)GlcNAc(b1-3)Gal(b1-4)GlcNAc(b1-3)Gal(b1-4)GlcNAc(b1-2)Man(a1-6)]Man(b1-4)GlcNAc(b1-4)GlcNAc. Put shortly: as §1
In assay [16] the target is Gal(b1-4)GlcNAc(b1-3)Gal(b1-4)GlcNAc(b1-3)Gal(b1-4)GlcNAc(b1-3)Gal(b1-4)GlcNAc(b1-3)Gal(b1-4)GlcNAc(b1-2)Man(a1-3)[Gal(b1-4)GlcNAc(b1-3)Gal(b1-4)GlcNAc(b1-3)Gal(b1-4)GlcNAc(b1-3)Gal(b1-4)GlcNAc(b1-3)Gal(b1-4)GlcNAc(b1-2)Man(a1-6)]Man(b1-4)GlcNAc(b1-4)[Fuc(a1-6)]GlcNAc. An outline of the steps:
as §1

The target of assay [17] is Gal(b1-4)GlcNAc(b1-3)Gal(b1-4)GlcNAc(b1-3)Gal(b1-4)GlcNAc(b1-3)Gal(b1-4)GlcNAc(b1-3)Gal(b1-4)GlcNAc(b1-2)[Gal(b1-4)GlcNAc(b1-3)Gal(b1-4)GlcNAc(b1-3)Gal(b1-4)GlcNAc(b1-3)Gal(b1-4)GlcNAc(b1-3)Gal(b1-4)GlcNAc(b1-6)]Man(a1-6)[Gal(b1-4)GlcNAc(b1-3)Gal(b1-4)GlcNAc(b1-3)Gal(b1-4)GlcNAc(b1-3)Gal(b1-4)GlcNAc(b1-3)Gal(b1-4)GlcNAc(b1-2)Man(a1-3)]Man(b1-4)GlcNAc(b1-4)[Fuc(a1-6)]GlcNAc. Put shortly:
as §1

Assay [18] has as its target Gal(b1-4)GlcNAc(b1-3)Gal(b1-4)GlcNAc(b1-3)Gal(b1-4)GlcNAc(b1-3)Gal(b1-4)GlcNAc(b1-3)Gal(b1-4)GlcNAc(b1-3)Gal(b1-4)GlcNAc(b1-2)Man(a1-3)[Gal(b1-4)GlcNAc(b1-3)Gal(b1-4)GlcNAc(b1-3)Gal(b1-4)GlcNAc(b1-3)Gal(b1-4)GlcNAc(b1-3)Gal(b1-4)GlcNAc(b1-3)Gal(b1-4)GlcNAc(b1-2)Man(a1-6)]Man(b1-4)GlcNAc(b1-4)GlcNAc. An outline of the steps: as §1
The target in assay [19] is Gal(b1-4)GlcNAc(b1-3)Gal(b1-4)GlcNAc(b1-3)GalNAc. Put shortly: as §1

B1: Epa11 (Candida glabrata) (protein)
chain: MGSSHHHHHHSSGLVPRGSHMASSNAPNYPVGCSPSVGTQLTPGLSLEVYAYPMDGNNGYCWNATYKDPEFPRSGYLKNKLLGKADGVVGPLNFLAKNKDCSPKVDTLPAGFNFPQPITVTNFTMVLFGYLAPKQSGKYTFKLLADDLLLLNLGATNAFDCCNREATKNNLGEFLAYNLWPNQDKNVTVYLEKGVYYPLRLFFNNRDGGSQLDFSYYFNDSPAPLTDFSGMFFSVPDGAECPARI
For the molecule B1, the “glycan array binding signal (z-score)” value in [1] is -0.054; in assay [2], -0.135; in [3] it was -0.343; in [4], 1.27; in [5] it was 0.331; in assay [6], 0.748. Besides, the “glycan array binding signal (z-score)” value in assay [7] is 1.98; in [8], -0.199; in assay [9], 2.67; in assay [10], 0.054; in [11], 1.94; in assay [12], -0.077. Also, the “glycan array binding signal (z-score)” value in [13] is 0.911; in [14], 0.458; in assay [15] it was 0.572; in assay [16], -0.755; in [17] it was -0.485; in [18] it was 0.763. Moreover, in assay [19], the “glycan array binding signal (z-score)” value came to 1.23.

The values above are taken from the supplement of paper PMC8728848.
